Measured values as given in PMC9344665.
Results are given in words; binding and its absence hold for the method and conditions named. Some entries that bind do so weakly or less than the wild type. Sequences can lack the tags named with a protein.

Biological target: T1, FARSA N410K variant (human) (UniProt Q9Y285)
T1 sequence: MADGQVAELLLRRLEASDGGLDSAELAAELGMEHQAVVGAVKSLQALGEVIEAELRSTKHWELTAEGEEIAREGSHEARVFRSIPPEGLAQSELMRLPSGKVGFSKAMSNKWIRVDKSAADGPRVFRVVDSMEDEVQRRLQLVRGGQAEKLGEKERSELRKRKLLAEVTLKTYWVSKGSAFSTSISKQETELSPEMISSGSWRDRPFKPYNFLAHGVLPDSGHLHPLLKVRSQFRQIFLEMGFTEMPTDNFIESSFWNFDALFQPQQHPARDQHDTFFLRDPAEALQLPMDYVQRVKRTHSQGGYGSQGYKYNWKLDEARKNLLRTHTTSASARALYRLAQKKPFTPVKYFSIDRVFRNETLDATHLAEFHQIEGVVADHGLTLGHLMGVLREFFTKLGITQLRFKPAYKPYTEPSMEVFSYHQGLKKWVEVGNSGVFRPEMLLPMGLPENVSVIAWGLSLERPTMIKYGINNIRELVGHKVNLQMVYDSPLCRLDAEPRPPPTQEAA
Test: co-purification of coexpressed proteins (Ni-NTA, heparin, size-exclusion chromatography); His6-FARSA and untagged FARSB coexpressed in E. coli Rosetta (DE3); lysate on Ni-NTA (20 mM Tris-HCl pH 8.5, 500 mM NaCl), His6-tag removed with HRV3C, HiTrap Heparin HP with a NaCl gradient, then SEC in 20 mM HEPES-NaOH pH 7.5, 150 mM NaCl; SDS-PAGE of fractions

B1: FARSB (β subunit of cytosolic phenylalanyl-tRNA synthetase FARS1), no affinity tag (enzyme, UniProt Q9NSD9 1-584)
chain: MPTVSVKRDLLFQALGRTYTDEEFDELCFEFGLELDEITSEKEIISKEQGNVKAAGASDVVLYKIDVPANRYDLLCLEGLVRGLQVFKERIKAPVYKRVMPDGKIQKLIITEETAKIRPFAVAAVLRNIKFTKDRYDSFIELQEKLHQNICRKRALVAIGTHDLDTLSGPFTYTAKRPSDIKFKPLNKTKEYTACELMNIYKTDNHLKHYLHIIENKPLYPVIYDSNGVVLSMPPIINGDHSRITVNTRNIFIECTGTDFTKAKIVLDIIVTMFSEYCENQFTVEAAEVVFPNGKSHTFPELAYRKEMVRADLINKKVGIRETPENLAKLLTRMYLKSEVIGDGNQIEIEIPPTRADIIHACDIVEDAAIAYGYNNIQMTLPKTYTIANQFPLNKLTELLRHDMAAAGFTEALTFALCSQEDIADKLGVDISATKAVHISNPKTAEFQVARTTLLPGLLKTIAANRKMPLPLKLFEISDIVIKDSNTDVGAKNYRHLCAVYYNKNPGFEIIHGLLDRIMQLLDVPPGEDKGGYVIKASEGPAFFPGRCAEIFARGQSVGKLGVLHPDVITKFELTMPCSSLEIN
binding: binds
